These are yes or no findings as the source states them, for the method shown. Some results given as binding are weak or reduced against the parent protein; the word gives no strength.

The target of the experiment is T1, human IL-17E (human, UniProt Q9H293 33-177).
T1 construct: also called hIL17-E; IL-25
T1 sequence (looked up): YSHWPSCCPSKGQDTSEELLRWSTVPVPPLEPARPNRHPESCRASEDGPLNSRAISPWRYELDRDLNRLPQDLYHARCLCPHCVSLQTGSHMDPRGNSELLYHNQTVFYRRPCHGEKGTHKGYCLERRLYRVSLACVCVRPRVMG
In words: binding assay; the sentence refers to Table 1.

With ACGYDYYCALYDICA (Ci, Cii and Ciii cyclised with TBMB) [BCY2240 [A-(SEQ ID NO: 56)-A]], the binding entry was “binds”.
